Measured values as given in paper PMC6972931, “YqfB protein from Escherichia coli: an atypical amidohydrolase active towards N^4-acylcytosine derivatives” (Scientific Reports, 2020).
These are yes or no findings as the source states them, for the method shown.

Molecular target: YqfB protein from Escherichia coli (Escherichia coli) (UniProt P67603)
Test: SEC; Superdex 200 10/300; 0.5 mL sample at 1 mg ml^-1; 50 mM Tris-HCl pH 8.0, 100 mM NaCl; 0.3 ml min^-1; standards apoferritin, albumin, carbonic anhydrase; both purified

binding: no binding (tested: 1 mg ml^-1)
B1: YqfB protein from Escherichia coli (enzyme, UniProt P67603 1-103)
chain: MQPNDITFFQRFQDDILAGRKTITIRDESESHFKTGDVLRVGRFEDDGYFCTIEVTATSTVTLDTLTEKHAEQENMTLTELKKVIADIYPGQTQFYVIEFKCL
